# PubChem BioAssay AID686943, Drosophila RNAi Screening Center | 2013
# Test: 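Search across the genome for regulators of signalling from receptor tyrosine kinase to ERK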 (primary screen)
# Cell system: Drosophila S2R+ haemocyte-like cells expressing YFP-tagged ERK (Rolled)
# Knock-down reagent: long dsRNA against Drosophila genes
# Challenge: insulin stimulation versus unstimulated cells; dose and duration not given
# Measurement: 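Antibody staining for doubly phosphorylated ERK divided by ERK-YFP signal, as plate z-scores, in insulin-treated and untreated cells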
# Reading the numbers: replicate 1, z-score of dpERK with insulin and replicate 2, z-score of dpERK with insulin: higher = more active ERK per ERK-YFP after insulin; replicate 1, z-score of dpERK under basal conditions: higher = more basal active ERK per ERK-YFP; replicate 1, z-score of ERK-YFP with insulin: higher = more YFP-tagged ERK signal
# The screen tested about 23,000 reagents; below is an unselected part of those that have a named target and a result. 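Extra replicates exist only for a retested subset of genes; insulin dose and duration not given; both raised and lowered dpERK matter.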 Names joined by + are all predicted targets of the reagent. The record does not give: the amount of reagent, the time to read-out.
Gene,dsRNA,"replicate 1, z-score of dpERK with insulin","replicate 2, z-score of dpERK with insulin","replicate 1, z-score of dpERK under basal conditions","replicate 1, z-score of ERK-YFP with insulin"
CG15710,DRSC06581,0.54,-0.21,-0.01,0.29
CG12289,DRSC09874,-0.08,0.31,-0.23,0.2
csul (capsuleen),DRSC07599,-0.23,0.38,-0.27,0.25
CG5916,DRSC15917,-0.5,-0.95,-0.02,-0.06
CG30203,DRSC06690,-0.49,0.23,-0.54,0.61
CG34217,DRSC05083,-0.99,-0.36,1.31,0.07
sand (sandman),DRSC07245,0.3,0.49,0.05,0.08
tzn (tenzing norgay),DRSC11755,0.02,0.39,1.33,-0.23
CG11417,DRSC18581,-0.41,-0.77,-0.98,1.24
CG9961,DRSC00738,0.06,-0.04,-0.17,-0.41
Obp58c (Odorant-binding protein 58c),DRSC04166,-0.46,-0.42,-1.02,-0.06
c12.2,DRSC18751,0.4,0.3,0.52,-0.24
CG18662,DRSC02691,-0.41,-0.58,0.62,-0.57
ZnT77C (Zinc transporter 77C),DRSC11766,-0.36,-0.3,0.29,0.34
ZnT77C (Zinc transporter 77C),DRSC11767,-0.64,-0.89,-0.25,0.08
CG12538,DRSC14527,0.31,-0.09,0.39,0.75
Cyt-c1 (Cytochrome c1),DRSC10447,0.56,-0.24,-0.69,0.23
Tat (Tyrosine aminotransferase),DRSC19602,0.16,0.54,0.83,-0.28
"Dcps (Decapping enzyme, scavenger)",DRSC12299,-0.57,0.23,-0.71,0.65
CG15646,DRSC19682,-0.97,-0.26,-0.46,0.11
CG2915,DRSC06842,0.59,0.28,-0.18,0.04
CG7382,DRSC03052,-0.43,-0.79,0.13,0.22
CG17154,DRSC10253,-0.25,-0.95,0.1,-0.12
CG30043,DRSC06285,-0.04,-0.51,-0.59,0.03
mute (muscle wasted),DRSC06562,-2.27,-0.82,-0.69,1.88
mute (muscle wasted),DRSC22931,-1.18,-1.44,-2.51,1.01
CG15160,DRSC02461,-0.71,0.53,-1.95,1.98
antr (antares),DRSC22392,2.27,-0.05,-1.33,-1.11
brwl (brickwall),DRSC01080,-0.77,-1.85,-1.6,2
brwl (brickwall),DRSC02729,-0.42,-0.32,1.01,-0.77
CG7675,DRSC16280,0.68,-0.33,0.44,-0.76
CG12744,DRSC06164,0.5,0.55,0.7,0.71
jb (jean-baptiste),DRSC20531,0.54,0.32,-0.5,0.26
CG14020,DRSC02350,0.02,0.2,-0.25,0.11
gwl (greatwall),DRSC16305,-0.14,0.41,-0.37,0.06
scpr-A + scpr-C,DRSC15737,0.28,0.89,1.05,-0.3
FANCI (Fanconi anemia complementation group I),DRSC06416,0.59,0.04,-0.06,0.11
CG14329,DRSC14808,2.13,1.49,-0.34,-0.91
CG42674,DRSC10066,1.37,1.1,-0.48,0.65
CG42674,DRSC10067,0.4,1.06,1.12,0.51
CG42674,DRSC10811,0.95,0.47,0.27,-0.09
GstD3 (Glutathione S transferase D3),DRSC15571,0.3,-0.46,0.33,0.05
mRpL10 (mitochondrial ribosomal protein L10),DRSC00312,0.01,1.01,-0.11,0.13
CG15118,DRSC06540,-0.99,0.15,0.54,1.21
OSCP1,DRSC06304,-0.82,2.05,-0.77,0.3
Obp19b (Odorant-binding protein 19b),DRSC20536,-0.95,-0.28,-0.09,0.03
CG12012,DRSC08220,0.22,-0.19,0.16,0.46
ric8b + ric8a,DRSC18104,0.52,1.04,0.76,-0.03
AnxB10 (Annexin B10),DRSC20677,-0.05,0.34,-0.54,0.61
CG14820,DRSC10191,0.75,0.68,0.72,-0.11
sdk (sidekick),DRSC18831,0.14,-0.6,-0.12,0.33
Cypl (Cyclophilin-like),DRSC08362,0.07,0.39,-0.72,0.03
kune (kune-kune),DRSC04860,0.05,0.13,-0.09,-0.43
CG33679,DRSC01436,-0.4,0.51,0.81,-0.25
Dhdds (Dehydrodolichyl diphosphate synthase subunit),DRSC17756,0.66,0,0.74,0.2
CG5762,DRSC15869,-0.45,-0.56,-0.28,0.19
sov (small ovary),DRSC17930,-0.61,-0.36,0.03,1.5

A portion from the list above:
Gene,dsRNA,"replicate 1, z-score of dpERK with insulin","replicate 2, z-score of dpERK with insulin","replicate 1, z-score of dpERK under basal conditions","replicate 1, z-score of ERK-YFP with insulin"
CG14329,DRSC14808,2.13,1.49,-0.34,-0.91
CG42674,DRSC10066,1.37,1.1,-0.48,0.65
CG42674,DRSC10067,0.4,1.06,1.12,0.51
CG42674,DRSC10811,0.95,0.47,0.27,-0.09
